# Test results: publication PMC7819943, “Rice protein-binding microarrays: a tool to detect cis-acting elements near promoter regions in rice”
# The chains behind the UniProt entries cited, without tags or fusion partners.
# UniProt Q0JBA9, entry or part of it: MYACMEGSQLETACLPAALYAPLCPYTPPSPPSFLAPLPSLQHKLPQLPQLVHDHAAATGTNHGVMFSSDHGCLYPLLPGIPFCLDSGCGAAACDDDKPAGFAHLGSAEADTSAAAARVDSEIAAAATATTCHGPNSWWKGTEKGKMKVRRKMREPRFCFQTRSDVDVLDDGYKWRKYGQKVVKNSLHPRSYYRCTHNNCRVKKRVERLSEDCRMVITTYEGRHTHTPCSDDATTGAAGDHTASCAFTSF
# This is one part of the list.
# Molecular target: OsWRKY34 (Oryza sativa, UniProt Q0JBA9 1-250)
# Experiment: protein-binding microarray (RPBM); PBS, 2% BSA, 51.3 ng/ul salmon testes DNA, 50 uM zinc acetate, 200 nM TF, 25 C, 1 h; high values mean tight binding
# Conditions: protein: recombinant; tags: N-terminal polyhistidine and DsRed monomer fusion (pET32a); label: CyDye5-dUTP incorporated in the synthesized complementary strand; 3' TTTTT single-stranded linker to array surface; dsDNA, one strand shown
# In short: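 For the binding signal, per-feature fluorescence intensity was read in arbitrary units on an Axon 4000B scanner. Before scanning, a 2% BSA-blocked custom Agilent array made double-stranded with Cy5-dUTP was washed after 1 h at 25 °C with 200 nM protein and 50 µM zinc acetate. The proteins were Ni–NTA-purified transcription factors with N-terminal polyhistidine and DsRed fusions, expressed in E. coli BL21-CodonPlus.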
row,Sequence,binding signal
1,ACACGCCTTTGTTGGATTCAAATCCAATTTCTCTCGTTCACGGAGTCACCTAGTGCAG,9390 fluorescence intensity (a.u.)
2,GAACATTCTTTTTCCACTTTTCACTCGTCGTGTTTAAATGCGGAGTCACCTAGTGCAG,10400 fluorescence intensity (a.u.)
3,ACTGCGTTGCTTTATATCTACTTATATCCGATTCCATGTTCGGAGTCACCTAGTGCAG,12000 fluorescence intensity (a.u.)
4,GATGTTCAGTATTGATTCAAGTTGCAGTGGGGTTTATTGGCGGAGTCACCTAGTGCAG,8070 fluorescence intensity (a.u.)
5,GTTTGTCGGACTTCTCTCCCTCACCTCGCCGGCGGCAAGGCGGAGTCACCTAGTGCAG,9120 fluorescence intensity (a.u.)
6,TGCGTGTCCCATCTCACCCTCACACCGTCACACAACAAGCCGGAGTCACCTAGTGCAG,9020 fluorescence intensity (a.u.)
7,CAAGGATGCCCACACTTGTTATAACTTTCTCAGAGCGATCCGGAGTCACCTAGTGCAG,8030 fluorescence intensity (a.u.)
8,CGTGTATAGTTTGGCAATGCAAATATTTGTGGTCATTTTCCGGAGTCACCTAGTGCAG,11900 fluorescence intensity (a.u.)
9,CGTTTGACCGTTCGTCTTATTTGAAAATTTTTTATGCTTACGGAGTCACCTAGTGCAG,10100 fluorescence intensity (a.u.)
10,GCTCCGTGCCGCCGGCTTCGCGCGCCACTGCCTCGCCGGCCGGAGTCACCTAGTGCAG,8280 fluorescence intensity (a.u.)
11,GTAGGGTGTTAGACTTGTCTTGGTGCTTGCCAGTACGTTACGGAGTCACCTAGTGCAG,11800 fluorescence intensity (a.u.)
12,GAATTATAGCACACTACTTTATTAACTATGTTGTTACACACGGAGTCACCTAGTGCAG,9220 fluorescence intensity (a.u.)
13,GCACATTTTGCATATCTTTTTTTTTCTCTCTGTGGAGAACCGGAGTCACCTAGTGCAG,8880 fluorescence intensity (a.u.)
14,TTTCTCTCCATATGTCCTTTATAGATTGATTTGATAATTTCGGAGTCACCTAGTGCAG,8080 fluorescence intensity (a.u.)
15,GCCCATGCGCGACCTCGCCACCATATATAAACCGCGCCAACGGAGTCACCTAGTGCAG,10200 fluorescence intensity (a.u.)
16,TAATCCTAATCTCATGCTTCTGCTTTCTCTATGTTTCTCTCGGAGTCACCTAGTGCAG,9360 fluorescence intensity (a.u.)
17,TTCCTATTTGTATAGTCGCACTCCGTCGACACCATCTCCTCGGAGTCACCTAGTGCAG,8330 fluorescence intensity (a.u.)
18,AATGTATTCCTTTCCTATTTACAATAAAATTTATTGATGCCGGAGTCACCTAGTGCAG,9250 fluorescence intensity (a.u.)
19,GCTCTGTTCTTCTCTGTTCTTCTCTATTCCTTCCAAATTCCGGAGTCACCTAGTGCAG,15400 fluorescence intensity (a.u.)
20,AGTCTGCTGGGTTGGAGGGCTTCGTCTCGGAATTGTTCCCCGGAGTCACCTAGTGCAG,10200 fluorescence intensity (a.u.)
21,CGGTAATATAAATACTGCGGTAACCTCCTTAAATTCAAATCGGAGTCACCTAGTGCAG,8600 fluorescence intensity (a.u.)

# Reformatted: entries from further up
row	Sequence	binding signal
3	ACTGCGTTGCTTTATATCTACTTATATCCGATTCCATGTTCGGAGTCACCTAGTGCAG	12000 fluorescence intensity (a.u.)
5	GTTTGTCGGACTTCTCTCCCTCACCTCGCCGGCGGCAAGGCGGAGTCACCTAGTGCAG	9120 fluorescence intensity (a.u.)

# Continued:

row,Sequence,binding signal
1,GCTGGTGGGCGGTGGATTCGGCGTAGGGAGGCGAGGCAGTCGGAGTCACCTAGTGCAG,8540 fluorescence intensity (a.u.)
2,TTTACCTTTTCCCAGTTTTCATTTTGGCGCGAGCCTTTCCCGGAGTCACCTAGTGCAG,11200 fluorescence intensity (a.u.)
3,ATCATGTTTCGTCCGTTTTATAATATAAGTTGTTTTGACTCGGAGTCACCTAGTGCAG,11400 fluorescence intensity (a.u.)
4,CGCCGGATCTGCAACCACTGCCCACCACCTCCTAACCTCACGGAGTCACCTAGTGCAG,9730 fluorescence intensity (a.u.)
5,CATGTGTCCCACTTTTTTTTTGTATGAATGATATGTCGGTCGGAGTCACCTAGTGCAG,8030 fluorescence intensity (a.u.)
6,CAGTTTTGATCTAGTTCTTTCCATGTGCTTTGTCCTCACACGGAGTCACCTAGTGCAG,11200 fluorescence intensity (a.u.)
7,TCAGCCACCATGTTAACACCTCTCTGATTGCCACTATGCTCGGAGTCACCTAGTGCAG,8410 fluorescence intensity (a.u.)
8,CAGCACCAACGTTCTCTTCGGCCGATTCGGCGATTGCATCCGGAGTCACCTAGTGCAG,8930 fluorescence intensity (a.u.)
9,CCGGCCATAAACGCGAGCCCACTAAAAGACTCGGCCCATTCGGAGTCACCTAGTGCAG,8210 fluorescence intensity (a.u.)
10,TGGCTACCATCACTCATTGATCTCCTGTGCACATCGAAACCGGAGTCACCTAGTGCAG,9260 fluorescence intensity (a.u.)
11,CACAACACTAGCTCAACCTCCACCACCAGTTCAGATATGCCGGAGTCACCTAGTGCAG,9550 fluorescence intensity (a.u.)
12,CCACCGCGTCCACATCTGCCTCGCCCTCGCGCCGCCGCTTCGGAGTCACCTAGTGCAG,10400 fluorescence intensity (a.u.)
13,ACCGTCTAGACTCAAGCTTTACTGACGATATTAACTTGTTCGGAGTCACCTAGTGCAG,8430 fluorescence intensity (a.u.)
14,ATAGTTTCATTTTGATTCTTCCGCTCTCTGCTAGCTTCCACGGAGTCACCTAGTGCAG,11000 fluorescence intensity (a.u.)
15,AACCACTGATTCGTTATTCAATACAAGCAACTTTATTTCTCGGAGTCACCTAGTGCAG,11600 fluorescence intensity (a.u.)
16,ATTTTGACTTTTTGGTTGCGCTATTTGATTACTCGTCTTACGGAGTCACCTAGTGCAG,19400 fluorescence intensity (a.u.)
17,ACGCCTCTTTTCTTCTGTCCTGTCTTCATCTCCTACCTAACGGAGTCACCTAGTGCAG,10600 fluorescence intensity (a.u.)
18,GGTGCCTGATATTTCTCCATTACCTTCCATGATCTCCACCCGGAGTCACCTAGTGCAG,10700 fluorescence intensity (a.u.)
19,AATAGCATTCATCCATCAACTGAAGAACAAAGAGGCCATTCGGAGTCACCTAGTGCAG,10100 fluorescence intensity (a.u.)
20,AATATTGCTCTTCCATCTCTTGTCGGCATCATCTGTATAACGGAGTCACCTAGTGCAG,10400 fluorescence intensity (a.u.)
21,ATAGTCTCATTCATCCGGTGTTCCATGTGTCCCAGTTAAACGGAGTCACCTAGTGCAG,9430 fluorescence intensity (a.u.)
